Source: PubChem BioAssay AID1794845 (National Center for Advancing Translational Sciences (NCATS), 2023)
Hit rate of the full screen: of about 6,900 compounds, fewer than 10 were called active. Calls come from the whole dose curve; as a rule, active = well fitted curve in the direction sought with a large enough effect; inconclusive = small, poorly fitted or top-dose-only effect, or another doubt; inactive = no such curve, though single readings can be large or run the other way. The list shows a part of the results.

The chains behind the UniProt entries cited, without tags or fusion partners. Where a name states a change or a piece, a line headed by the entry shows the natural chain unless it says otherwise.
UniProt C7C422: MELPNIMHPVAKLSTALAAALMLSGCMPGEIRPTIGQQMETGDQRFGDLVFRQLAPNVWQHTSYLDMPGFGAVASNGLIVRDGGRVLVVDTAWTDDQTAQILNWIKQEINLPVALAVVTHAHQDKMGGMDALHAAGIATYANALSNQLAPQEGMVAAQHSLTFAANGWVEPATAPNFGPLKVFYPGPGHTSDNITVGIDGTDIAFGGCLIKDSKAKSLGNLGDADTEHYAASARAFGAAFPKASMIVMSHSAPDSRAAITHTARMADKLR

biological target: Metallo-beta-lactamase type 2 (Klebsiella pneumoniae) (UniProt C7C422); assay: qHTS to identify inhibitors of the New Delhi Metallo-beta-lactamase (NDM): primary screen against the NCATS Gemini Collection; conditions: NDM-1 enzyme, meropenem hydrolysis, absorbance 300 nm; at 38.4 µM (top of the series) unless noted; note: % of control where 0% means no effect
Method in brief: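 NDM-1 at 2 nM final in 50 mM HEPES pH 7.0, 1 uM ZnSO4, 0.01% Tween20, preincubated >30 min with compound. Meropenem 50 uM final added; absorbance at 300 nm after 30 min.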

| SMILES | activity % (negative = inhibition) |
| --- | --- |
| O=C(NC1CCC1)c1ccc2nccn2c1 | inactive: 18.1% [at 77.1 µM] |
| CS(=O)(=O)c1ccc(CC(=O)N[C@H](c2ccccn2)C2CC(O)C2)cc1 (stereo partly drawn) | inactive: 2.03% |
| O=C(C1CCCC1)N1CC2(CCCN(Cc3ccccn3)C2)Cc2ccccc21 (stereo not drawn) | inactive: 25.1% |
| COCCOc1ncccc1-c1noc([C@@H]2CCCN2Cc2ccc(OC)cc2O)n1 | inactive: 6.12% [at 57.5 µM] |
| CN1CCC(N[C@@H]2CCC[C@@H](C(=O)NC3CC3)CC(=O)N(C)C2)CC1 | inactive: 8.57% [at 57.5 µM] |
| O=C(c1ccccc1)N1CC2(CCCN2Cc2cccnc2)Cc2ccccc21 (stereo not drawn) | inactive: 5.12% |
| CC[C@H]1CN(C(=O)NC(C)C)CC[C@H]1CC(=O)N(C)CCC#N | inactive: 4.13% [at 57.5 µM] |
| Cc1nnn2c(C(=O)NCc3ccc(Cl)cc3)cccc12 | inactive: -3.28% [at 57.5 µM] |
| O=C(O)C1=NOC2CN([S+](=O)([O-])c3cc(C(F)(F)F)cc(C(F)(F)F)c3)CC12 (stereo not drawn) | inactive: -3.44% |
| Cc1noc(C)c1CCCNC(=O)c1ccc(NC[C@H]2C[C@H]3C=C[C@H]2C32CC2)nc1 | inactive: 16.1% |
| CN(Cc1ccc(F)cc1)C1CCCc2ccccc21 (stereo not drawn) | inactive: -2.61% [at 57.5 µM] |
| Cc1ccc(NC(=O)C2CCc3nnc(C4CCN(C(=O)NC(C)(C)C)CC4)n32)cc1 (stereo not drawn) | inactive: 4.92% |
| CN1c2cc(C(=O)NCc3ccccc3)ccc2C(=O)N2CCCC21 (stereo not drawn) | inactive: -1.5% |
| O=C(CN1C(=O)C(c2ccccc2)=NC12CCCC2)NC1CCCC1 | inactive: -1.45% |
| CN(c1ccccc1)c1cc(=O)c2ccnc(-c3ccc(CO)cc3)c2o1 | inactive: 27.6% [at 57.5 µM] |
| CCCc1cc(C(=O)N2CCC(=O)N(CC3CC3)C(C(C)C)C2)cs1 (stereo not drawn) | inactive: 0.0611% |
| COc1ccc(CC2(CO)CCN(c3cc(OC)nc(N)n3)CC2)cc1 | inactive: 0.978% |
| CCC(CC)n1c(=O)n(CCCc2cccnc2)c2cc(C(=O)O)cnc21 | inactive: 7.44% |
| Cc1cnn(CC(=O)N2CC(F)(F)C[C@H]2c2nc(C3CC3)no2)c1 | inactive: 2.2% |
| CCN1CCN(c2nc3c(s2)CN(Cc2ccccn2)CC3)CC1 | inactive: -5.21% |
| CC1=C[C@@H](CO)[C@H](C(C)C)C[C@H]1CC(=O)NCc1cc(F)cc(F)c1 | inactive: 1.77% [at 57.5 µM] |
| O=C(c1ccc(F)cc1)N1CCCC(C(=O)N2CCC(c3nc4ncccc4[nH]3)CC2)C1 (stereo not drawn) | inactive: 2.12% |
| c1ccc(-c2nnc([C@H]3CCN(Cc4ccco4)C3)o2)cc1 | inactive: 0.128% [at 57.5 µM] |
| CCOc1ccc(NC(=O)NCCc2noc(C)n2)cc1 | inactive: -1.85% |
| CC1CCC2(CC1)NC(=O)N(CC(=O)N1CCc3ccccc31)C2=O (stereo not drawn) | inactive: 7.2% |
| COCCO[C@H]1C(=O)N(C2CCN(C(=O)c3cnccn3)CC2)[C@H]1c1ccncc1 | inactive: 0.147% |
| CC(C)(C)N1CC(C(=O)NCCCc2ccccc2F)CC1=O (stereo not drawn) | inactive: -1.78% |

Some of the entries so far, with each value named:
Cc1nnn2c(C(=O)NCc3ccc(Cl)cc3)cccc12
  activity % (negative = inhibition): inactive: -3.28% [at 57.5 µM]
Cc1cnn(CC(=O)N2CC(F)(F)C[C@H]2c2nc(C3CC3)no2)c1
  activity % (negative = inhibition): inactive: 2.2%
O=C(c1ccc(F)cc1)N1CCCC(C(=O)N2CCC(c3nc4ncccc4[nH]3)CC2)C1 (stereo not drawn)
  activity % (negative = inhibition): inactive: 2.12%

The list continues:

| SMILES | activity % (negative = inhibition) |
| --- | --- |
| Cc1nsc(NC(=O)NCc2ccccc2OC(F)(F)F)n1 | inactive: 1.6% |
| CCOCC(=O)N[C@@H]1CN(Cc2ccccc2)C[C@H]1CN(C)C | inactive: 1.95% |
| CSc1ccc(-c2nc(CN(C)Cc3cc(C)no3)c(C)o2)cc1 | inactive: 18.7% |
| Cn1nc2n(c1=O)CCN(Cc1ccc(Br)s1)CC2 | inactive: 1.51% |
| CS(=O)(=O)N(C1CC1)C1CCOC2(CCN(C(=O)CCC3CCCC3)CC2)C1 (stereo not drawn) | inactive: -1.24% |
| Cc1noc(C)c1S(=O)(=O)N1CCC(Cc2nc(-c3cccnc3)n[nH]2)C1 (stereo not drawn) | inactive: 43.2% |
| O=C(NCc1ccc(F)c(F)c1)c1ccc2nnc(Cc3ccco3)n2c1 | inactive: 7.63% |
| Cc1noc2c(NCCN(C)C)cc(-c3ccccc3)nc12 | inactive: 6.75% [at 57.5 µM] |
| COC[C@@H]1[C@H](C(=O)N2CCN(c3ccccn3)CC2)CCC(=O)N1C | inactive: 2.22% |
| Cc1c(C(=O)N2CC[C@@](O)(C3CCOCC3)[C@H](C)C2)n(C)c2c(C)cccc12 | inactive: 22.6% |
| O=C(C1CCOCC1)N1CCC2(CC1)CC(N1CCCC1)CCO2 (stereo not drawn) | inactive: 13.4% |
| Cc1noc(C2CC3(CCN(C(=O)Nc4ccccc4)CC3)CN2C)n1 (stereo not drawn) | inactive: 9.44% |
| CCN(C(=O)c1cccc(F)c1F)[C@@H]1CCN(c2ncccc2C#N)C[C@H]1O | inactive: 0.202% |
| O=C(NCc1ccc(F)cc1)[C@@H]1C[C@H](c2ccc(F)cc2)N([S+](=O)([O-])C2CC2)C1 | inactive: -0.046% [at 57.5 µM] |
| CC(C)c1noc([C@@H]2C[C@H](NS(=O)(=O)c3ccccc3)CN2C)n1 | inactive: 3.48% [at 57.5 µM] |
| COc1cccc(CCC(=O)N2CCC(n3cc(-c4nc(-c5ccccc5)no4)nn3)C2)c1 (stereo not drawn) | inactive: 2.63% |
| CC(=O)N1CCN(C(=O)c2cc(-c3ccc(F)cc3)c3nncn3n2)CC1 | inactive: 8.34% |
| O=C1NC2(CN([S+](=O)([O-])c3ccsc3)C2)Oc2ccccc21 | inactive: 2.5% [at 57.5 µM] |
| CC(=O)N1CCCC1c1nnc2n1CCNC2 (stereo not drawn) | inactive: 6.83% [at 57.5 µM] |
| O=C(NCc1ccc(F)cc1)c1ccc2nnc(CC3CC3)n2c1 | inactive: -0.497% [at 57.5 µM] |
| COc1ccc(NC(=O)N2C[C@@H]3C[C@H](C2)c2ccc(NC(=O)c4ccccn4)c(=O)n2C3)cc1 | inactive: 2.94% |
| CN(C)c1ccc(CCc2nc(C3CCOC3)no2)cc1 (stereo not drawn) | inactive: 4.84% |
| O=C(c1ccc(C(F)(F)F)cc1)N1CCC2(CC1)CNc1ccccc1[S+](=O)([O-])N2 | inactive: 1.48% |
| Cc1nc2scc(CC(=O)N3CCOCC3)n2c(=O)c1-c1cc(C)n(-c2ccc(F)cc2)n1 | inactive: 8.07% |
| CC(C)CCN1C[C@@H]2C(=O)N(CCc3ccccc3)C(=O)[C@@H]2C1 | inactive: 9.39% |
| COCCNC(=O)[C@@H]1C[C@@H](O)CN1C1CCN(C(=O)Cc2ccccc2)CC1 | inactive: -3.06% |
